# The match of structure and compound is tentative.
# Sequences of proteins named here, by UniProt entry; tags and fusion partners are left off.
# UniProt P31645, whole entry: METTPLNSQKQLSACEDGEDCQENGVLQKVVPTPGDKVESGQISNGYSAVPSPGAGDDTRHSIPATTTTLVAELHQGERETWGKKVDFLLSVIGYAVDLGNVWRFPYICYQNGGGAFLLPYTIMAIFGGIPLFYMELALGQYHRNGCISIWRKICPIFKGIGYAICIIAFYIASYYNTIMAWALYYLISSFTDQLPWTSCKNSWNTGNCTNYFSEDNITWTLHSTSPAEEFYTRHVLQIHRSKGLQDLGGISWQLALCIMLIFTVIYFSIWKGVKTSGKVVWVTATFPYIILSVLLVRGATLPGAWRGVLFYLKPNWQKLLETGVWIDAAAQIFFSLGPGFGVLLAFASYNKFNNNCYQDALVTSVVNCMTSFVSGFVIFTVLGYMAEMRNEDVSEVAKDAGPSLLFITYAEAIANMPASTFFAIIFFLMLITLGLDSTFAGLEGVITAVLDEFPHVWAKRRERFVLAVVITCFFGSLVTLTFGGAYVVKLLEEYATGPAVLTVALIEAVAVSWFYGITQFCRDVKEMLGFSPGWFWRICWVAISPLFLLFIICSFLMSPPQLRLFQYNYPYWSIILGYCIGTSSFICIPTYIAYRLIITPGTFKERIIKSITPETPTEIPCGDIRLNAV
# UniProt P08908, whole entry: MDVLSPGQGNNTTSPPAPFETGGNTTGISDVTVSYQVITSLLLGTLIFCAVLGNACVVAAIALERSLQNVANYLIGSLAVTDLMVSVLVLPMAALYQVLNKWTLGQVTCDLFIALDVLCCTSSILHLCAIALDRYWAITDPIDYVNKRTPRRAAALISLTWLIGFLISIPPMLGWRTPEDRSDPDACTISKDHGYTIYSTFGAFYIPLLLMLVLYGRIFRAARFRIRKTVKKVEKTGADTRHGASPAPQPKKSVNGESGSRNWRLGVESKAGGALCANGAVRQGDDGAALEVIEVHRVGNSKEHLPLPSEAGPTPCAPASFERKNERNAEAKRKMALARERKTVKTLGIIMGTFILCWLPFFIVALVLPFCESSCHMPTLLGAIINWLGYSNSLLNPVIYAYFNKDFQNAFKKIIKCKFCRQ
# Tests used:
# [1] = target: human 5-HTT (Homo sapiens, UniProt P31645); assay: Radioligand binding to 5-HTT (serotonin transporter, SERT), [3H]Paroxetine; settings: Example 77; membranes of HEK293 cells, [3H]Paroxetine 0.5 nM; <5 = not active at up to 10 μM
# Method: For 5-HTT binding, frozen membranes of HEK293 cells stably-transfected with human 5-HTT (Perkin-Elmer, USA) were thawed on ice, briefly homogenised and resuspended in Tris-HCl buffer (50 mM, pH 7.4) supplemented with NaCl (120 mM) and KCl (5 mM) at a concentration of 50 μg protein per incubation mixture. The membrane suspension was added to the test compound together with [^3H]Paroxetine (0.5 nM) in a total volume of 250 μl and incubated (60 min, 25° C.). Non-specific binding was determined in the presence of imipramine (1 μM). Filtration was done over pre-soaked GF/B unifilters (0.01% PEI) and washed as above with the Tris-HCl salt buffer used for the incubation. Specific binding was calculated and sigmoidal curves were plotted by an internally-developed software program based on S-plus software. Ki values were calculated using the Cheng-Prusoff equation.
# [2] = target: T1, human 5HT1A receptor (Homo sapiens, UniProt P08908); assay: Radioligand binding to the 5-HT1A receptor, [3H]8-OH-DPAT; settings: Example 77; membranes of HEK293 cells, [3H]8-OH-DPAT 0.5 nM; <5 = not active at up to 10 μM
# Method: Frozen membranes of HEK293 cells, stably-transfected with human 5-HT1A receptor (Perkin Elmer) were thawed on ice, briefly homogenised with an Ultra Turrax homogeniser and then suspended in Tris-HCl buffer (50 mM pH 7.7) supplemented with CaCl2 (4 mM) at an appropriate pre-determined protein concentration (5-10 μg protein per incubation mixture). Together with [^3H]8-OH-DPAT (0.5 nM final concentration; Perkin Elmer, USA), the membrane suspension was added to the test compound and incubated (30 min at 37° C.) in a total volume of 400 μl. Non-specific binding was determined in the presence of Spiroxatrine (1 μM). Free radioligand was separated from the radioligand-receptor complex by means of rapid vacuum filtration over GF/B unifilter plates with a Packard Harvester Filtration Unit. Unifilter plates were washed with ice cold Tris-HCl buffer (50 mM, pH 8.0) and then dried overnight. Bound counts were measured in a Topcount Scintillation Counter in the presence of Microscint O.
# [3] = target: T1, human 5HT1A receptor; assay: [35S]GTPγS binding for 5-HT1A receptor inhibition (antagonist mode); settings: Example 78, HEK293 membranes, antagonist mode with serotonin 100 nM, <5 = not active at up to 10 μM
# Method: Compounds showing affinity at the 5-HT1A receptor were tested for functional agonism and antagonism in a [^35S]GTPγS (guanine triphosphate (non-hydrolysable, labelled with ^35S) binding assay on membranes of HEK293 cells permanently transfected with human 5HT1A receptor (Perkin Elmer, USA).
# Frozen membranes were thawed, briefly homogenized and were diluted in incubation buffer, 100 mM NaCl, 0.3 mM MgCl2 and 10 μM guanine diphosphate (GDP), pH 7.4-7.5) supplemented with 10 μg/ml saponin. Assay mixtures contained 10 μg of membrane protein and test compound, buffer, or control agonist (serotonin, 10 μM). For the antagonistic assay, control agonist was present in all wells containing compound at a sub-maximal concentration (serotonin, 100 nM). After 20 minutes pre-incubation at 37° C., [^35S]GTPγS was added to a final concentration of 0.25 nM, briefly shaken and further incubated for another 20 minutes. Reactions were terminated by rapid vacuum filtration through GF/B unifilter plates using a Packard Harvester. Filters were washed three times with wash buffer (10 mM NaH2PO4, 10 mM Na2HPO4, pH 7.4), dried overnight and bound counts were measured in a Topcount Scintillation Counter in the presence of Microscint O. % Specific Binding was calculated and curves were plotted with help of in house software where pIC50 values were determined and Kb values were calculated.
SMILES,h5HTT pIC50 [1],h5HT1A pIC50 [2],h5HT1A Antagonist pIC50 [3]
Fc1ccc(CCN2C[C@@H]3C/C=C\C[C@H]2CN3c2ccccc2-c2ccccc2)cc1,5.35,5.12,<5
Clc1cccc(N2C[C@@H]3CC=CC[C@H]2CN3)c1,6.42,<5,
Cc1cc2c(OC[C@@H](O)CN3C[C@@H]4CC=CC[C@H]3CN4c3ccc4ccccc4c3)ccc(Cl)c2[nH]1,7.49,6.29,<5

# Now from value to molecule:
h5HTT pIC50 [1],h5HT1A pIC50 [2],h5HT1A Antagonist pIC50 [3],SMILES
7.94,5.08,<5,C1=CC[C@@H]2CN[C@H](C1)CN2c1ccc2ccccc2c1
7.28,6.22,<5,Cc1cc2c(OC[C@@H](O)CN3C[C@@H]4CC=CC[C@H]3CN4c3ccc4ccccc4c3)ccc(C)c2[nH]1

# Reference: patent publication US8530475B2, “Bridged aryl piperazines derivatives useful for the treatment of CNS, GI-urinary and reproductive disorders” (Janssen Pharmaceutica NV, priority 2006, dated 2013)
